Data source: PubChem BioAssay AID1259425 (University of Nebraska Medical Center, 2018)
Here is one part, drawn at random, of about 14,000 deposited reagents. Reagents against one gene are numbered here. Further read-outs or replicates are left out here. Not stated in the record: the time to read-out.

- Screen: 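Find knockdowns that reproduce the gene expression pattern seen when KSR1 is lost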 (primary screen)
- Cells: HCT116 human colon cancer cells
- Reagent: siRNA pool against human genes, 50 nM siRNA
- Measurement: 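After 50 nM siRNA pool, branched-DNA assay measures six marker transcripts per well, minus blank, normalised to the geometric mean of two housekeeping transcripts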
- Scale: BNIP3L mRNA: higher = more BNIP3L transcript after knockdown

gene symbol | reagent no. | BNIP3L mRNA, set 1
RBM23 | 1 | 0.144
PLOD2 | 1 | 0.114
PRDM1 | 1 | 0.0971
NKX2-2 | 1 | 0.187
MMP20 | 1 | 0.0535
TDRD3 | 1 | 0.135
LENG1 | 1 | 0.14
ZNF823 | 1 | 0.106
LEPROTL1 | 1 | 0.0902
RNF17 | 1 | 0.0594
RNF17 | 2 | 0.0785
IDH3A | 1 | 0.0938
ARMC7 | 1 | 0.0956
SLC39A14 | 1 | 0.0818
CEP83 | 1 | 0.0901
COMMD10 | 1 | 0.12

Part of the list above in another layout.
RNF17 #2
- BNIP3L mRNA, set 1: 0.0785

IDH3A
- BNIP3L mRNA, set 1: 0.0938

ARMC7
- BNIP3L mRNA, set 1: 0.0956

SLC39A14
- BNIP3L mRNA, set 1: 0.0818

CEP83
- BNIP3L mRNA, set 1: 0.0901

COMMD10
- BNIP3L mRNA, set 1: 0.12

More reagents follow.
gene symbol | reagent no. | BNIP3L mRNA, set 1
TMEM140 | 1 | 0.124
SERPINA1 | 1 | 0.223
SLC6A16 | 1 | 0.105
OR11A1 | 1 | 0.292
ENPP5 | 1 | 0.113
AS3MT | 1 | 0.192
KDM3A | 1 | 0.0677
MAF | 1 | 0.0911
PNPLA2 | 1 | 0.15
UBQLN3 | 1 | 0.0784
DYRK4 | 1 | 0.0624
SMARCD1 | 1 | 0.12
COL13A1 | 1 | 0.103
POM121L9P | 1 | 0.0692
DAZL | 1 | 0.0919
IL36G | 1 | 0.0473
PFKP | 1 | 0.0954
PLN | 1 | 0.113
IRAK4 | 1 | 0.0734
MYPN | 1 | 0.12
SNX2 | 1 | 0.18
TYW1 | 1 | 0.157
TMC7 | 1 | 0.111
OR1J4 | 1 | 0.0913
DACH2 | 1 | 0.126
TMPRSS13 | 1 | 0.273
KMT5B | 1 | 0.184
SREBF1 | 1 | 0.114
PER1 | 1 | 0.138
LLPH | 1 | 0.176
ATP6V0A1 | 1 | 0.434
KLK12 | 1 | 0.0693
RRAS | 1 | 0.0753
PDHB | 1 | 0.0815
